Results from article PMC12823420.
No constants are given. Whether binding was seen depends on the method and setting. Binding seen in cells or lysates may run through a third protein. Here binding means that the protein was enriched with, or labelled near, the bait; the list need not be complete.

Sequences of proteins named here, by UniProt entry; tags and fusion partners are left off.
UniProt Q9H814: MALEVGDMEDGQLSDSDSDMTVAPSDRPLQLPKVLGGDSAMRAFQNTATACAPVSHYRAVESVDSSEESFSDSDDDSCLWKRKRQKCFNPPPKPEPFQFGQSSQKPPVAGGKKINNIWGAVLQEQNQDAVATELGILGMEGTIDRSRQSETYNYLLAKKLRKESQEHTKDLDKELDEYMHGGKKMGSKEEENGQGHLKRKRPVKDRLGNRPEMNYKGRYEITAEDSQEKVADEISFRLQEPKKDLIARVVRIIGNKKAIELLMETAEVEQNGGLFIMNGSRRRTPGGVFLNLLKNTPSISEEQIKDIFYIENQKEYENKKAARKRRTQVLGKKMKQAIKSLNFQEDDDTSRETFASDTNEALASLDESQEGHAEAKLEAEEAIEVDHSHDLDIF

Biological target: GFP–UAP56 (endogenously tagged eGFP–3C–DDX39B) (human (endogenous in K562)) (UniProt Q13838)
Assay: affinity purification with mass spectrometry; GFP-Trap IP from benzonase-treated nuclear lysate of GFP–UAP56 K562 cells against WT K562; on-bead digest, MS

binding: binds
Substance: endogenous PHAX (K562) (from UniProt Q9H814 1-394)
